The values below come from article PMC7819943, “Rice protein-binding microarrays: a tool to detect cis-acting elements near promoter regions in rice”.

Sequences of proteins named here, by UniProt entry; tags and fusion partners are left off.
UniProt Q0JBA9, entry or part of it: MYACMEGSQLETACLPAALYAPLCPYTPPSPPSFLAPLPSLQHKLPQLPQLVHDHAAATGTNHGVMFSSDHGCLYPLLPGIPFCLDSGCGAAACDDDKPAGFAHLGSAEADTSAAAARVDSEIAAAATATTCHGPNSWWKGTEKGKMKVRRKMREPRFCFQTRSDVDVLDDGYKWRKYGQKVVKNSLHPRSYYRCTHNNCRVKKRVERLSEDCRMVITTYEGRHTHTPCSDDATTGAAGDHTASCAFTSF

The list shows a part of the results.

This assay deals with OsWRKY34 (Oryza sativa, UniProt Q0JBA9 1-250). Put plainly: protein-binding microarray (RPBM); PBS, 2% BSA, 51.3 ng/ul salmon testes DNA, 50 uM zinc acetate, 200 nM TF, 25 C, 1 h; high values mean tight binding. As to conditions: protein: recombinant; tags: N-terminal polyhistidine and DsRed monomer fusion (pET32a); label: CyDye5-dUTP incorporated in the synthesized complementary strand; 3' TTTTT single-stranded linker to array surface; dsDNA, one strand shown. The procedure, abridged: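 Polyhistidine-tagged DsRed fusions of transcription factors, joined at the N-terminus, were expressed in E. coli BL21-CodonPlus and isolated on Ni–NTA. They were incubated at 200 nM for 1 h at 25 °C on a custom Agilent array, double-stranded and BSA-blocked, in PBS with 2% BSA, salmon testes DNA and 50 µM zinc acetate. The binding signal is per-feature fluorescence intensity (arbitrary units) read on an Axon 4000B scanner after washing.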
Consider “CCGATCCATCTCGACTCGACGCCCCAAGCAGCCAAGCTGACGGAGTCACCTAGTGCAG”, for which the binding signal was 8630 fluorescence intensity (a.u.).

For the sequence “CCTCCATGCCTCCTCCGCCATCTCTCTCTCTCTCTCGCTCCGGAGTCACCTAGTGCAG”, the binding signal is 9060 fluorescence intensity (a.u.).

For “AATCTCACGAACCCTTGCGCCGTCGGTCTCTCTCTCTCGCCGGAGTCACCTAGTGCAG”, the binding signal was 8420 fluorescence intensity (a.u.). As to “CCGGCGACCTCGAGCCTTCCGCTCATCCATCTCTGCAGAGCGGAGTCACCTAGTGCAG”, the binding signal is 10400 fluorescence intensity (a.u.). As to “CGGCGACCGTTGATATTTCTCGTCTCTCATCTCACCACCGCGGAGTCACCTAGTGCAG”, the binding signal is 8040 fluorescence intensity (a.u.).

With “AGGTTGGTTGGTTCACACTTCACACACATCTTTTTCGACCCGGAGTCACCTAGTGCAG”, the binding signal is 12400 fluorescence intensity (a.u.).

As to “TTTGCCAAAATTTGATTAATTTCGTTTGACTTTTGCCGTTCGGAGTCACCTAGTGCAG”, the binding signal was 13500 fluorescence intensity (a.u.). The figure for “ATTCCTCATCTCGTTGATGCCGACTTATATCTGCCCTGATCGGAGTCACCTAGTGCAG” is 9330 fluorescence intensity (a.u.); for “AAATTCTACCGCATCGTGGCCCACTTCGCCTCTCTTTCCTCGGAGTCACCTAGTGCAG” it is 10800 fluorescence intensity (a.u.); for “CATCACGGCACAAAAATATCTTCATATTTGCTCACATCAGCGGAGTCACCTAGTGCAG” it is 8030 fluorescence intensity (a.u.). In the case of “GCTCCTCCTTGCTGTTCATGGCCACCGGGAGGGAGAGGGGCGGAGTCACCTAGTGCAG”, the binding signal is 8210 fluorescence intensity (a.u.). As for “CACCACCCGCCGCCGTCGCCGTTGCCGTCGTCTTCGTTTCCGGAGTCACCTAGTGCAG”, the binding signal was 13900 fluorescence intensity (a.u.). In the case of “TACTCGCCCACCTTGTCGTCGCCGTCGAAGCCATCGCCACCGGAGTCACCTAGTGCAG”, the binding signal is 8640 fluorescence intensity (a.u.). As to “ATCTTGCTGCCACGACCACCACCCATAAGCATCACCCACACGGAGTCACCTAGTGCAG”, the binding signal was 11300 fluorescence intensity (a.u.). The figure for “GGGTGTGGATATAGCAAATTTTGAGGCAAGGATGCAGGCACGGAGTCACCTAGTGCAG” is 8260 fluorescence intensity (a.u.); for “CCACGTGCCCCTCGTGGTGGTCGTCCCCGCGCCCCAGCTTCGGAGTCACCTAGTGCAG” it is 8310 fluorescence intensity (a.u.).

For “TGTTCTCCTCCTAATGTGCTGTCATTTTCTGTATGCTATTCGGAGTCACCTAGTGCAG”, the binding signal is 9830 fluorescence intensity (a.u.). As for “CCCTAGCCCTCGCCCTGGTCCGTCCGGCGTGGCGCGCGCTCGGAGTCACCTAGTGCAG”, the binding signal was 8030 fluorescence intensity (a.u.). For “CTACCGTATACACTTGCAAGTACATAATTTATTTTTTTTTCGGAGTCACCTAGTGCAG”, the binding signal was 8440 fluorescence intensity (a.u.). Consider “CCTTGACAGATTAATCCTACGTTTTGACCCCATATGTTTTCGGAGTCACCTAGTGCAG”, for which the binding signal was 8880 fluorescence intensity (a.u.). Take “TTTTTTTTGGGTTTGTTGGAACCATGCCACCCTATATTTACGGAGTCACCTAGTGCAG”: the binding signal is 8200 fluorescence intensity (a.u.). Consider “ACTTTTCGTTGCCGTGTTGGGATGTGCACCCTGATACCCGCGGAGTCACCTAGTGCAG”, for which the binding signal was 8590 fluorescence intensity (a.u.). On to “ATCACGTACTACCGGGCGTCCCCACTATTTTCAGCCCACACGGAGTCACCTAGTGCAG”, for which the binding signal is 15300 fluorescence intensity (a.u.).

On to “TTTTTTTCTTTTCTGCTTCTTTCTCGTGATCGATCGCTATCGGAGTCACCTAGTGCAG”, for which the binding signal was 8730 fluorescence intensity (a.u.).

With “TCAAGCACTTCAGAGTCTTCTTCTTTCTCTGCTTTTGGGGCGGAGTCACCTAGTGCAG”, the binding signal was 9900 fluorescence intensity (a.u.).

Consider “ACTTATTATCCATTTAAATATGCTACTAGTCATTCCTCATCGGAGTCACCTAGTGCAG”, for which the binding signal is 9030 fluorescence intensity (a.u.). Regarding “GTTTCTTTTGCTACCTTTTTAACCGCTAATAGCATAAATGCGGAGTCACCTAGTGCAG”, the binding signal was 8080 fluorescence intensity (a.u.). With “TTTTTTTCGGTCTCAATATTTTTTTTTCTCACGTCTTTCGCGGAGTCACCTAGTGCAG” the figure was 10800 fluorescence intensity (a.u.). The figure for “ACACTGGTCTTCTACTCTGTTATCATCTGTTCAGGAAACACGGAGTCACCTAGTGCAG” is 8120 fluorescence intensity (a.u.); for “GTCCTAATATGTGCAATTAATTATTTTTTTAGCCTACATTCGGAGTCACCTAGTGCAG” it is 9300 fluorescence intensity (a.u.). As for “CCACATCCATCTATCATCGTGCATAAGCTTCCTATCATACCGGAGTCACCTAGTGCAG”, the binding signal is 8180 fluorescence intensity (a.u.). Regarding “GGGTGTCTTGATGGTTATGATACTGATTTTCTTTATGTCTCGGAGTCACCTAGTGCAG”, the binding signal is 8260 fluorescence intensity (a.u.). On to “ATCTCTGTCTCTGTCTGTCAATCTCACGCACACCAGCACACGGAGTCACCTAGTGCAG”, for which the binding signal is 9420 fluorescence intensity (a.u.). Take “ATATATCCATAGTTCTATACACAAAGCGTACCTGTTCTTTCGGAGTCACCTAGTGCAG”: the binding signal was 9950 fluorescence intensity (a.u.). With “ACTTCACCAACCTATCTGGCCCGCTCACTACCGGCACAATCGGAGTCACCTAGTGCAG” the figure was 11000 fluorescence intensity (a.u.). With “ACCGTTCCAGGATTCCAGCACATACTGATGCATCCTTTTTCGGAGTCACCTAGTGCAG”, the binding signal was 8660 fluorescence intensity (a.u.). As for “GCCTGGTCTGGTCTTGTTGTATAAAATCTCTTAATTGCCACGGAGTCACCTAGTGCAG”, the binding signal was 8620 fluorescence intensity (a.u.). On to “CATGATCGCTGTGCACCTTCTGAATCATCTCTTCAATGGCCGGAGTCACCTAGTGCAG”, for which the binding signal is 9780 fluorescence intensity (a.u.). On to “TTTACCGTTTTACCCCTCGCCGGCGGCCGCCGCACTCCGGCGGAGTCACCTAGTGCAG”, for which the binding signal was 8820 fluorescence intensity (a.u.).

For the sequence “GTCTACATGAACCATTCCAAATGACTTTTATAGGATTTCACGGAGTCACCTAGTGCAG”, the binding signal is 8340 fluorescence intensity (a.u.). With “ATTCACGCCGCTGCGGCCGCTTGCACATCCACGCACTTTGCGGAGTCACCTAGTGCAG” the figure was 10400 fluorescence intensity (a.u.); with “CGTTCTGCCCCGGTTGTTTGCTACTCGCGTCCACGCGATCCGGAGTCACCTAGTGCAG”, 8930 fluorescence intensity (a.u.).
